# Measurements reported in the supplement of paper PMC11732987, “Enantioselective OTUD7B fragment discovery through chemoproteomics screening and high-throughput optimisation” (Communications Chemistry, 2025).
# Sequences of proteins named here, by UniProt entry; tags and fusion partners are left off. A change or cut given only in a name is not applied to a line headed by its entry. Residues count along the entry.
# UniProt Q6W2J9: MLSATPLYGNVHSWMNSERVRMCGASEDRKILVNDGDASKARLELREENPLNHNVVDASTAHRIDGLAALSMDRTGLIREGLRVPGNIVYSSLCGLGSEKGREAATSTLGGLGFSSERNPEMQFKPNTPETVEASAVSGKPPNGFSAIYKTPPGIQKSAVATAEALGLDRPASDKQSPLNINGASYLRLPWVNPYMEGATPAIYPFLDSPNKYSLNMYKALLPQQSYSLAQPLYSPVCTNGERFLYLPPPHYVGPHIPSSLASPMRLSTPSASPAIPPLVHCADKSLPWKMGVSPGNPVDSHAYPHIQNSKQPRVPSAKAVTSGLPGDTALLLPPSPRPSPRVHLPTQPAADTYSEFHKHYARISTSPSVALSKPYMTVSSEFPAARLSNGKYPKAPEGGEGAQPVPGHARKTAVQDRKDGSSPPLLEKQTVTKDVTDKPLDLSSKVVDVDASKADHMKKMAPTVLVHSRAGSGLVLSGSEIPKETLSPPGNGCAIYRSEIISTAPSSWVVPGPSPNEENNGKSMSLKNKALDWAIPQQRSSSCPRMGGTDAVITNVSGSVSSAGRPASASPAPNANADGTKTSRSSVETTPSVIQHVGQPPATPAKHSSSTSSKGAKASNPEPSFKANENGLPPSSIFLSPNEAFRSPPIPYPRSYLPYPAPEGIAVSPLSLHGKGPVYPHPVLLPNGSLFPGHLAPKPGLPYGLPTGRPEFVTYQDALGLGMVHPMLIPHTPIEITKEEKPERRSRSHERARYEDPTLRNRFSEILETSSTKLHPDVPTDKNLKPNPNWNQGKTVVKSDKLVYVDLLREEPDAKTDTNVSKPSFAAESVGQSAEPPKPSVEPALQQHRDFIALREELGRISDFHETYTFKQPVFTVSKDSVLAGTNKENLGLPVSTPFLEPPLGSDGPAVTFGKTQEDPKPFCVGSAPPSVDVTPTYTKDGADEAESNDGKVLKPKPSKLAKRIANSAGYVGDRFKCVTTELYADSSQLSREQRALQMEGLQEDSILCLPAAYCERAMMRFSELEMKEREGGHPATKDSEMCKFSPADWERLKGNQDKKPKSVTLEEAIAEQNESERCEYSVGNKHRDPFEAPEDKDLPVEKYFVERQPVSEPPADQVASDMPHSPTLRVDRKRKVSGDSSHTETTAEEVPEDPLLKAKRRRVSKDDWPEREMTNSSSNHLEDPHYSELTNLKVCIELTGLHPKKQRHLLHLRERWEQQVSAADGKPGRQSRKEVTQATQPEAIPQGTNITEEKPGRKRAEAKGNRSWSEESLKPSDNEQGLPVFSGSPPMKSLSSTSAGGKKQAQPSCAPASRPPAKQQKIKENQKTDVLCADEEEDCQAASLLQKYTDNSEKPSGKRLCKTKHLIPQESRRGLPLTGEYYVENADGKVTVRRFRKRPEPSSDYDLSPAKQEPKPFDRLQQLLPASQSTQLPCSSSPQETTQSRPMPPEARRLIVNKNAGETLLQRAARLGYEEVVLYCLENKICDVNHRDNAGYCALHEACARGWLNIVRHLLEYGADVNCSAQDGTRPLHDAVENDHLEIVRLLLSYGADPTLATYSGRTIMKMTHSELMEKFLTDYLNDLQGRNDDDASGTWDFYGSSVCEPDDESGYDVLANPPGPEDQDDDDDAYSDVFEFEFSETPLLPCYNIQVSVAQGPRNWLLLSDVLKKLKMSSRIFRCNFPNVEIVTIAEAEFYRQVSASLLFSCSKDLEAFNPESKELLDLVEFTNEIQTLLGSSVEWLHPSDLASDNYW
# UniProt Q14692: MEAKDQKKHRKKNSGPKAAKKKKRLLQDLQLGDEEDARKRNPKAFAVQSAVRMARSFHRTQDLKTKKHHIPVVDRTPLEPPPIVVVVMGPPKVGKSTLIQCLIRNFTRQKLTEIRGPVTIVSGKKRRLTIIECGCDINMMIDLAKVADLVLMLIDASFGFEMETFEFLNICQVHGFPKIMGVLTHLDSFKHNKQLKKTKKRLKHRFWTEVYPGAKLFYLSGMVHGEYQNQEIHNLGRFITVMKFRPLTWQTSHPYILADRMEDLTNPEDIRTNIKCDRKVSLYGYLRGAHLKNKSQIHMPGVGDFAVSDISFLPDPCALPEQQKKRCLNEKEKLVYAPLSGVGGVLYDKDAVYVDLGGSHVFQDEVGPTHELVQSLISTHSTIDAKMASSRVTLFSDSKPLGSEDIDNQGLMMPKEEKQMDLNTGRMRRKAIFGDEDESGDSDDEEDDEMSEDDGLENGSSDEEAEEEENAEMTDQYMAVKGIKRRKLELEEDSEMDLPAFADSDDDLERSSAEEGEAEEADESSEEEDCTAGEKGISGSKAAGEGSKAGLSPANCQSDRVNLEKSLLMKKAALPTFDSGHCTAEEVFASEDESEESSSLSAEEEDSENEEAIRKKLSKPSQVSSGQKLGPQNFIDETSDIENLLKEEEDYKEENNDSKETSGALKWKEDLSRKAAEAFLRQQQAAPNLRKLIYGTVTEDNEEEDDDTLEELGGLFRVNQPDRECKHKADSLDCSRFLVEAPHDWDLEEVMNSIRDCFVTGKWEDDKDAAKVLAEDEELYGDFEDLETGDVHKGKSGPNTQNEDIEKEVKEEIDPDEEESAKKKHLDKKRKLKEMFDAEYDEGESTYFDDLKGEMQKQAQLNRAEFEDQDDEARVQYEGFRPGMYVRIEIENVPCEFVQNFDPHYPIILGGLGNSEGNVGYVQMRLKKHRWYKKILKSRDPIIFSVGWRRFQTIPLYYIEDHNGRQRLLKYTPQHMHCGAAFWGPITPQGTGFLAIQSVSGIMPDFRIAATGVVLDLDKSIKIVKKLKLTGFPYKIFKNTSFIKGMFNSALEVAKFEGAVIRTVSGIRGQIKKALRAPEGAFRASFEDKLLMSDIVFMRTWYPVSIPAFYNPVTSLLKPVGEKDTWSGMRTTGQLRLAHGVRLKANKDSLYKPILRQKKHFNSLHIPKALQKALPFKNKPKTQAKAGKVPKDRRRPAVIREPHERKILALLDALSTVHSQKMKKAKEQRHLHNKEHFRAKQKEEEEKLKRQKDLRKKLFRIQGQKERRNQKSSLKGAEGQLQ
# UniProt Q9UIG0: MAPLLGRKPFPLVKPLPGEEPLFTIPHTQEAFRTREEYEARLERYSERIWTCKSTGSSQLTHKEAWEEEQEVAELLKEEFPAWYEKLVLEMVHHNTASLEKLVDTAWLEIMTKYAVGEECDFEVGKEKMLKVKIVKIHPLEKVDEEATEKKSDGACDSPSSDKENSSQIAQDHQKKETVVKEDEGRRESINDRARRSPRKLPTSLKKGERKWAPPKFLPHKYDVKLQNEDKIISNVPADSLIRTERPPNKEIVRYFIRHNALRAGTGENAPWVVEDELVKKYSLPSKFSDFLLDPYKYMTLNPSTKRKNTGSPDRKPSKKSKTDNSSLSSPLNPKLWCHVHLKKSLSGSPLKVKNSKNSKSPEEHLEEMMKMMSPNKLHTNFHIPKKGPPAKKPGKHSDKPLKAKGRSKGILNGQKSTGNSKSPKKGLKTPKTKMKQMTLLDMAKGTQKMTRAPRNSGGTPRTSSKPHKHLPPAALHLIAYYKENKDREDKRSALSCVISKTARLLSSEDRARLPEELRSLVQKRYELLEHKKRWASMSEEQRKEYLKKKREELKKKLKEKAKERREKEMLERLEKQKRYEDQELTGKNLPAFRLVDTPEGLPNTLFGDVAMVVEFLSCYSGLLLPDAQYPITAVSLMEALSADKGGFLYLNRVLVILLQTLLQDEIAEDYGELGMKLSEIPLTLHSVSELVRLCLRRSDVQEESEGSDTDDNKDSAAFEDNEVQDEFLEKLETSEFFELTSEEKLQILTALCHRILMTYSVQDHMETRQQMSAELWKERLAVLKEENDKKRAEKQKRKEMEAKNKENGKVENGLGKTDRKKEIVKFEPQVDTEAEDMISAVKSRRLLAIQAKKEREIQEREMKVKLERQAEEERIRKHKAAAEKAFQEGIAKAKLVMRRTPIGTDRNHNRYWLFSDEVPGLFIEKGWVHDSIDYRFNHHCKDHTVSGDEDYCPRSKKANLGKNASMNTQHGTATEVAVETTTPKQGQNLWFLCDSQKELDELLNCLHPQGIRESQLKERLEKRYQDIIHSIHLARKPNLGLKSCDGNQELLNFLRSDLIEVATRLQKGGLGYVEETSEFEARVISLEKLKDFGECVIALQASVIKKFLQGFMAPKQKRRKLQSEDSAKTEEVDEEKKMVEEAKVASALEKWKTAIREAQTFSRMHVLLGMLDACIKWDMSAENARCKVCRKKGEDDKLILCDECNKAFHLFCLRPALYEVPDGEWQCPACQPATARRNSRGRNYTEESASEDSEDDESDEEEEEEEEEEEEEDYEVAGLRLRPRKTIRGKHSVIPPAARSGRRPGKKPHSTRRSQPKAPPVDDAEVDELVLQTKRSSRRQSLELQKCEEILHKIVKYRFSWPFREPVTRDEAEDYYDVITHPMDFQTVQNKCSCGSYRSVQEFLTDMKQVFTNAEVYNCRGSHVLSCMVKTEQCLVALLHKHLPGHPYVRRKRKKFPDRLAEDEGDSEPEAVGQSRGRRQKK
# UniProt Q9HB09: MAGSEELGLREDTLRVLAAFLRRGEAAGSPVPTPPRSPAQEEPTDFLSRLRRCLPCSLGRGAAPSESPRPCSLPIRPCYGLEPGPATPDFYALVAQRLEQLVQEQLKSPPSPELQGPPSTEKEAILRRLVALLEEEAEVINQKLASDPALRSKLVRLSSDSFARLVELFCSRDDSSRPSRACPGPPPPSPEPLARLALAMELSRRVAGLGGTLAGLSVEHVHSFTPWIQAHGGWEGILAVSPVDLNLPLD
# UniProt O95816: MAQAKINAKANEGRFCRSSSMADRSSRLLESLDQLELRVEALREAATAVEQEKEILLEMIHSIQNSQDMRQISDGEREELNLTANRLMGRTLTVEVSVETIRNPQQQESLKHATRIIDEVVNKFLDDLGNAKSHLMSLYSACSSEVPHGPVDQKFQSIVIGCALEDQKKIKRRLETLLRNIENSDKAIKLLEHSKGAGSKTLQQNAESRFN
# UniProt Q8WY36: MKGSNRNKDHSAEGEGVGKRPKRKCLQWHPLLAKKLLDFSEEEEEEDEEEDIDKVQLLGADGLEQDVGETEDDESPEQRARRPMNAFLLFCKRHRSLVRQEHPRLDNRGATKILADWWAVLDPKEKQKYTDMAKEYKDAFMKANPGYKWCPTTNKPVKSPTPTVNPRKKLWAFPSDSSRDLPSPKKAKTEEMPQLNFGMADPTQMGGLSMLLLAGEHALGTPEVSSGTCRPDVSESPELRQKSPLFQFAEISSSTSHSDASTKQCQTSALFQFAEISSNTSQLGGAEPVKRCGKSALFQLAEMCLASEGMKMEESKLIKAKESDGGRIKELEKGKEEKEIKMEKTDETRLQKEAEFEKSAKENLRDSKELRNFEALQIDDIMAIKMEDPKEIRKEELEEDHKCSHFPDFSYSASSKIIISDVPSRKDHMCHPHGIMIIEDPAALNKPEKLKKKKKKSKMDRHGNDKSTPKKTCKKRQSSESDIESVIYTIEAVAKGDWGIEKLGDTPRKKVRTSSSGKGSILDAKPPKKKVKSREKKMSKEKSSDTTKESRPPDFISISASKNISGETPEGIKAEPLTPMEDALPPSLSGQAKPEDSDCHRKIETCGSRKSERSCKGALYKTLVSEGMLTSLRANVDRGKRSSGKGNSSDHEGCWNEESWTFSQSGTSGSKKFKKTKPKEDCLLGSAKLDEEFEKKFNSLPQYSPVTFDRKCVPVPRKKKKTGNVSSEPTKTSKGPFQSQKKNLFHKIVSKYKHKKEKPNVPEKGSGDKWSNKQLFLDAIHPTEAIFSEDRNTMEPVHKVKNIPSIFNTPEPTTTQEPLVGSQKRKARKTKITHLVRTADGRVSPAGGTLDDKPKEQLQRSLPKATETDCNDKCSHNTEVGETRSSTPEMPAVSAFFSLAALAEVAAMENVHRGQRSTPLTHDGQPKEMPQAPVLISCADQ
# UniProt P38606: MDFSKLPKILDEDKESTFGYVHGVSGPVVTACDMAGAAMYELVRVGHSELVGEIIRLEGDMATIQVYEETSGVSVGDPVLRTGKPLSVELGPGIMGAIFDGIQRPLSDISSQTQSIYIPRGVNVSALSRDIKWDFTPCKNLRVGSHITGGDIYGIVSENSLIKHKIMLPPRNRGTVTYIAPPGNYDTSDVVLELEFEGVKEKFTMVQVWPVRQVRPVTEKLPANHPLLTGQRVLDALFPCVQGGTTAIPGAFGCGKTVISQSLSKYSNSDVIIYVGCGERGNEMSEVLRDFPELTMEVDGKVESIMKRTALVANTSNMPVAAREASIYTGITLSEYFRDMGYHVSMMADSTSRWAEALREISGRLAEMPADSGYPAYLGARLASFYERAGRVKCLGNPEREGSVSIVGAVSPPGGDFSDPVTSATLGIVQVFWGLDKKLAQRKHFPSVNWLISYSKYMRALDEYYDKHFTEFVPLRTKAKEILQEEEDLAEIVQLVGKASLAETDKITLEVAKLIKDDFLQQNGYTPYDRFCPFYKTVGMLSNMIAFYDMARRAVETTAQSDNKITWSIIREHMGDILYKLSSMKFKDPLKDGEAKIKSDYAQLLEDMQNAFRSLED
# UniProt Q6VMQ6, 101-124: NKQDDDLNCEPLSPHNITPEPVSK
# UniProt P11274, 235-254: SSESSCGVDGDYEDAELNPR
# The other results are listed elsewhere or left out. The data scatter; read single values as rough.
# Compound: ClCC(=O)N[C@@H]1CCCc2ccccc12
# Experiment: log2 mean competition ratio of IA-DTB cysteine labelling (DMSO/compound) (log2 ratio); higher = stronger cysteine engagement by compound
# Settings: 200 µM; treatment time: 4 h; cell line lysate: HEK293T
# Procedure: (§1)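 IA-DTB competitive cysteine chemoproteomics in HEK293T RIPA lysate. Lysates were treated with compound 29 or 30 at 50 or 200 µM for 4 h, then IA-DTB (500 µM, 1 h), trypsin-digested, NeutrAvidin-enriched and analysed by diaPASEF. Competition ratio = intensity DMSO / intensity compound (n=4 treated, n=64 DMSO); binding: mean log2 CR ≥ 1 and p ≤ 0.05 plus QC filters. Target is the cysteine site.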
row,Target,log2 mean competition ratio
1,BCOR C1488 (UniProt Q6W2J9),0.312
2,BMS1 C725 (UniProt Q14692),0.354
3,BAZ1B C120 (UniProt Q9UIG0),-0.16
4,BAZ1B C1428 (UniProt Q9UIG0),0.00227
5,BCL2L12 C254 (UniProt Q9HB09),0.158
6,ASXL2 C1166 (UniProt Q76L83),0.236
7,BAG2 C162 (UniProt O95816),0.275
8,ATXN2 C852,-0.325
9,BBX C606 (UniProt Q8WY36),0.34
10,ATP6V1A C277 (UniProt P38606),-0.171
11,ATF2 C418 (UniProt P15336),-0.0301
12,ATAD1 C310 (UniProt Q8NBU5),0.0371
13,ATG16L1 C506 (UniProt Q676U5),-0.297
14,BLOC1S3 C180 (UniProt Q6QNY0),0.182
15,ATF7IP C451 (UniProt Q6VMQ6),0.0253
16,BCL9 C64 (UniProt O00512),0.0851

# Compound: ClCC(=O)N[C@H]1CCCc2ccccc12
# Experiment: as above
# Settings: 50 µM; treatment time: 4 h; cell line lysate: HEK293T
# Procedure: as §1
row,Target,log2 mean competition ratio
1,ATP6V0D1 C335 (UniProt P61421),-0.00408
2,BCR C240 (UniProt P11274),0.0226
3,BIRC6 C752,-0.19
4,ATF7IP C109 (UniProt Q6VMQ6),-0.481
5,ATP13A2 C365 (UniProt Q9NQ11),-0.151
6,BIRC6 C2910,0.262
7,ATP2A2 C669 (UniProt P16615),0.587
8,BAZ1B C497 (UniProt Q9UIG0),0.241
9,BCOR C23 (UniProt Q6W2J9),-0.131
10,ATP2A3 C447 (UniProt Q93084),-0.415
11,ATP6V1B2 C112 (UniProt P21281),0.326
12,BIRC6 C777,0.373
13,ASPSCR1 C48 (UniProt Q9BZE9),-0.121
14,ATP7A C288 (UniProt Q04656),0.434
15,ATG2B C891 (UniProt Q96BY7),0.143
16,ATXN10 C65 (UniProt Q9UBB4),0.128
17,ATRX C1844 (UniProt P46100),-0.0963
18,ATAD5 C909 (UniProt Q96QE3),0.00489

row,Target,log2 mean competition ratio
1,ATXN2 C892,0.216
2,ASNS C158 (UniProt P08243),-0.408
3,BCOR C1488 (UniProt Q6W2J9),0.27
4,BMS1 C725 (UniProt Q14692),-0.126
5,BAZ1B C120 (UniProt Q9UIG0),-0.693
6,BAZ1B C1428 (UniProt Q9UIG0),0.106
7,BCL2L12 C254 (UniProt Q9HB09),0.0868
8,ASXL2 C1166 (UniProt Q76L83),-0.159
9,BAG2 C162 (UniProt O95816),-0.569
10,ATXN2 C852,0.83
11,BBX C606 (UniProt Q8WY36),0.0534
12,ATP6V1A C277 (UniProt P38606),0.177
13,ATF2 C418 (UniProt P15336),0.334
14,ATAD1 C310 (UniProt Q8NBU5),0.373
15,ATG16L1 C506 (UniProt Q676U5),0.345
16,BLOC1S3 C180 (UniProt Q6QNY0),0.656
17,ATF7IP C451 (UniProt Q6VMQ6),0.222
18,BCL9 C64 (UniProt O00512),0.0147

# Same assay, conditions: 200 µM; treatment time: 4 h; cell line lysate: HEK293T
row,Target,log2 mean competition ratio
1,ATP6V0D1 C335 (UniProt P61421),-0.204
2,BCR C240 (UniProt P11274),0.228
3,BIRC6 C752,0.0192
4,ATF7IP C109 (UniProt Q6VMQ6),0.107
5,ATP13A2 C365 (UniProt Q9NQ11),0.0262
6,BIRC6 C2910,-0.0608
7,ATP2A2 C669 (UniProt P16615),0.384
8,BAZ1B C497 (UniProt Q9UIG0),0.221
9,BCOR C23 (UniProt Q6W2J9),0.279
10,ATP2A3 C447 (UniProt Q93084),0.0398
11,ATP6V1B2 C112 (UniProt P21281),-0.199
12,BIRC6 C777,0.00706
13,ASPSCR1 C48 (UniProt Q9BZE9),0.0223
14,ATP7A C288 (UniProt Q04656),0.252
15,ATG2B C891 (UniProt Q96BY7),-0.268
16,ATXN10 C65 (UniProt Q9UBB4),-0.249
17,ATRX C1844 (UniProt P46100),0.0351
18,ATAD5 C909 (UniProt Q96QE3),-0.0135

row,Target,log2 mean competition ratio
1,ATXN2 C892,-0.307
2,ASNS C158 (UniProt P08243),-0.517
3,BCOR C1488 (UniProt Q6W2J9),-0.205
4,BMS1 C725 (UniProt Q14692),0.415
5,BAZ1B C120 (UniProt Q9UIG0),-0.182
6,BAZ1B C1428 (UniProt Q9UIG0),-0.162
7,BCL2L12 C254 (UniProt Q9HB09),0.23
8,ASXL2 C1166 (UniProt Q76L83),0.355
9,BAG2 C162 (UniProt O95816),-0.0937
10,ATXN2 C852,-0.289
11,BBX C606 (UniProt Q8WY36),-0.0245
12,ATP6V1A C277 (UniProt P38606),-0.197
13,ATF2 C418 (UniProt P15336),0.113
14,ATAD1 C310 (UniProt Q8NBU5),0.0916
15,ATG16L1 C506 (UniProt Q676U5),-0.275
16,BLOC1S3 C180 (UniProt Q6QNY0),0.00922
17,ATF7IP C451 (UniProt Q6VMQ6),-0.0195
18,BCL9 C64 (UniProt O00512),0.0902
